No constants are given. Whether binding was seen depends on the method and setting. Binding can be weak; no strength is given.
The binders below were run against HP1α chromoshadow domain (CSD; aa 110-191) (assay: ITC).

binding	Binder
binds	ILFKGKVPMVVLQDILAVR [hCaf1 p150 (aa 231-249)]
binds	YQADIKEARREVEVKLTPLIL [hLBR (aa 103-122 plus N-terminal Y)]
binds	LHNHGIQINSCSVRLVDIKKY [hSP100 (aa 279-298 plus C-terminal Y)]

Source: doi:10.1101/2024.11.04.621823
